Consider 1 molecule from article PMC3769253.

Results are given in words; binding and its absence hold for the method and conditions named. Binding seen in cells or lysates may run through a third protein. A result given as binding can be weak or reduced; the word gives no strength. Sequences can lack the tags named with a protein.

The target of assay [1] is MBP-CagH (H. pylori 26695). In words: co-IP; soluble extract of E. coli BL-21(DE3) co-expressing the two recombinant proteins; anti-CagI, anti-CagH or anti-Hp1489 antibody; Western blotting. On the technique in general: In western blotting, separated proteins are transferred to a membrane and probed.
In assay [2] the target is recombinant Hp1489 (GST-tag) (H. pylori) (UniProt O26022). The description is as above.

B1: recombinant CagI (without tag), Δ32N (domain or fragment, UniProt O25273 33-381)
chain: AIQADAQAKQKTAQAELKAIEAQSSAKEKAIQAQIEGELRTQLATMSAMLKGANGVINGVNGMTGGFFAGSDILLGVMEGYSSALSALGGNVKMIVEKQKINTQTEIQNMQIALQKNNEIIKLKMNQQNALLEALKNSFEPSVTLKTQMEMLSQALGSSSDNAQYIAYNTIGIKAFEETLKGFETWLKVAMQKATLIDYNSLTGQALFQSAIYAPALSFFSSMGAPFGIIETFTLAPTKCPYLDGLKISACLMEQVIQNYRMIVALIQNKLSDADFQNIAYLNGINGEIKTLKGSVDLNALIEVAILNAENHLNYIENLEKKADLWEEQLKLERETTARNIASSKVIVK
Consider B1, for which the binding entry in assay [1] and in assay [2] was “binds” each time.
